Assay results published in publication PMC5713321.
These are yes or no findings as the source states them, for the method shown. In cells and extracts the contact can be indirect. Some binding calls cover weakened binding; strength is not graded here. Sequences can lack the tags named with a protein.

Amino acid sequences for entries named in this document (tags omitted). Residues count along the entry.
UniProt Q9SY97, residues 40-273: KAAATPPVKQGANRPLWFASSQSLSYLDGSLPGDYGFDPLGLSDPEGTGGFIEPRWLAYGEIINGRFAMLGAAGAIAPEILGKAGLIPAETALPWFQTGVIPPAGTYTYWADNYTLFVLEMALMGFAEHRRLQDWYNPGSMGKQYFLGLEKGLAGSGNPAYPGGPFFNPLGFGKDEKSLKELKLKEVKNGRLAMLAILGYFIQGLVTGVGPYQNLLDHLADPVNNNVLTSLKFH
UniProt Q01667, residues 36-241: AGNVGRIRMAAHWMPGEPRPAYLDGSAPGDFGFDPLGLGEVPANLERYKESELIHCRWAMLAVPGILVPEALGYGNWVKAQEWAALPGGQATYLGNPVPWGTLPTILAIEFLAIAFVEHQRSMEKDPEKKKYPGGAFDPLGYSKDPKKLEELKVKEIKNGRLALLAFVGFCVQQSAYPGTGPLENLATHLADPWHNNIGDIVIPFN
UniProt Q9SYW8, residues 44-257: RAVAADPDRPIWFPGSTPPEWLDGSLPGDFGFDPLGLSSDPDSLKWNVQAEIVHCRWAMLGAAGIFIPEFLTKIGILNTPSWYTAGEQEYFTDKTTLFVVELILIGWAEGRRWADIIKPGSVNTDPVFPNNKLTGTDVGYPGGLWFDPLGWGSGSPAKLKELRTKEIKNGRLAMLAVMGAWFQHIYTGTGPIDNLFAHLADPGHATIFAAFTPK

Biological target: T1, HA-tagged WHY1 in thylakoid membrane fractions (Arabidopsis thaliana) (UniProt Q9M9S3)
T1 sequence: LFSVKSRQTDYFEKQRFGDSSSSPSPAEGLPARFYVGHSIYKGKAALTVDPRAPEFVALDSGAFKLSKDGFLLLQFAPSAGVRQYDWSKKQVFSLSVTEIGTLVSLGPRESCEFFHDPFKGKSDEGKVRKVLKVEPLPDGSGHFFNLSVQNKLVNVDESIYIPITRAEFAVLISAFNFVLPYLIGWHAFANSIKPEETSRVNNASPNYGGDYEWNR
Assay: co-IP; solubilised thylakoid membrane fractions 1, 2 and 3 of a sucrose gradient as input; antibody against the HA tag, 4 °C, protein A beads, washed with 50 mM Tris-HCl, 0.1% nonidet P-40, pH 8.0; immunoblots with antibodies against LHCA1, LHCA2, LHCA3, LHCA4 and LHCB1

Substance	binding
LHCA3 (endogenous, thylakoid membrane fractions) (from UniProt Q9SY97 40-273)	no binding
LHCA1 (endogenous, thylakoid membrane fractions) (from UniProt Q01667 36-241)	binds
LHCA2 (endogenous, thylakoid membrane fractions) (from UniProt Q9SYW8 44-257)	no binding
